{"source": "PubChem BioAssay AID316", "about": "(DTP/NCI, 2004)", "tested_on": "P1534 leukemia ip, CD2F1 mice, survival T/C", "assay": "NCI In Vivo Anticancer Drug Screen. Data for tumor model P1534 Leukemia (intraperitoneal) in CD2F1 (CDF1) mice", "settings": "T/C endpoint: mean survival time, schedule: Q01DX010 (ip), vehicle: saline, higher T/C = longer survival", "experimental": "The antitumor activity of compounds was measured in mice bearing transplantable tumors. Survival or tumor size were measured and the results are expressed as the measurement made in the treated group (T) divided by the measurement made in the vehicle treated control group (C). The tumor model used in this assay is P1534 Leukemia (intraperitoneal) in CD2F1 (CDF1) mice", "note": "The list shows only some results of the screen, not a fair sample: its compounds were picked by chemical class. Not every dose and run of a compound is shown. T/C is the treated group as % of the vehicle group. Some doses have a count of surviving animals in place of a T/C: the source files T/C as zero there, which appears to mark a toxic dose or a test without result, not a measured value. Some doses without a T/C left all or most animals alive at the check, yet need not have been tolerated: the source hardly ever lists a survival T/C far under the control, and the zero likely stands for such cases as well. Counts of survivors are from the toxicity check (mostly the fifth day) where no day follows; animals may have died later. Schedules are NCI's codes, read here as Q, the interval in days (D) or hours (H), X, the number of doses. Where survival is the endpoint, this PubChem deposit counts one and a half times the control or more as active, and values a quarter to a half above the control carry no call in these data; other NCI protocols may use other cut-offs. Some entries hold several experiments; the values are given in rising order."}
{"compound": "Cc1[nH]c(=O)[nH]c(=O)c1N(CCCl)CCCl", "values": [{"measurement": "T/C", "setting": "dose: 0.5 mg/kg/injection", "value": "140 % of control"}, {"measurement": "T/C", "setting": "dose: 1.0 mg/kg/injection", "value": "133 % of control"}, {"measurement": "survivor count", "setting": "dose: 2.0 mg/kg/injection", "value": "6 of 6"}, {"measurement": "survivor count", "setting": "dose: 4.0 mg/kg/injection", "value": "6 of 6"}]}
{"compound": "NC1CCCCC1.O=P(O)(N(CCCl)CCCl)N1CC1", "values": [{"measurement": "T/C", "setting": "dose: 1.25 mg/kg/injection", "value": "107 % of control"}, {"measurement": "T/C", "setting": "dose: 2.5 mg/kg/injection", "value": "140 % of control"}, {"measurement": "T/C", "setting": "dose: 5.0 mg/kg/injection", "value": "196 % of control"}, {"measurement": "T/C", "setting": "dose: 10.0 mg/kg/injection", "value": "181 % of control"}]}
{"compound": "O=C(NN(CCCl)CCCl)c1ccccc1", "values": [{"measurement": "T/C", "setting": "dose: 12.5 mg/kg/injection", "value": "100 % of control"}, {"measurement": "T/C", "setting": "dose: 25.0 mg/kg/injection", "value": "100 % of control"}, {"measurement": "T/C", "setting": "dose: 50.0 mg/kg/injection", "value": "107 % of control"}, {"measurement": "survivor count", "setting": "dose: 100.0 mg/kg/injection", "value": "5 of 6"}]}
{"compound": "CC[C@@H](C)[C@@H]1NC(=O)/C(=C(\\C)O)C1=O.c1ccc(CNCCNCc2ccccc2)cc1", "values": [{"measurement": "T/C", "setting": "dose: 10.0 mg/kg/injection", "value": "100 % of control"}, {"measurement": "T/C", "setting": "dose: 14.0 mg/kg/injection", "value": "100 % of control"}, {"measurement": "T/C", "setting": "dose: 20.0 mg/kg/injection", "value": "100 % of control"}, {"measurement": "T/C", "setting": "dose: 30.0 mg/kg/injection", "value": "100 % of control"}]}
{"compound": "CC[C@H](C)[C@@H]1NC(=O)/C(=C(\\C)O)C1=O", "values": [{"measurement": "T/C", "setting": "dose: 3.9 mg/kg/injection", "value": "100 % of control"}, {"measurement": "T/C", "setting": "dose: 7.8 mg/kg/injection", "value": "100 % of control"}, {"measurement": "T/C", "setting": "dose: 15.6 mg/kg/injection", "value": "100 and 107 % of control"}, {"measurement": "T/C", "setting": "dose: 31.3 mg/kg/injection", "value": "92 and 103 % of control"}, {"measurement": "survivor count", "setting": "dose: 62.5 mg/kg/injection", "value": "6 of 6"}, {"measurement": "survivor count", "setting": "dose: 125.0 mg/kg/injection", "value": "0 of 6"}]}
{"compound": "CN(N=O)C(=N)N[N+](=O)[O-]", "values": [{"measurement": "T/C", "setting": "dose: 8.0 mg/kg/injection", "value": "130 and 170 % of control"}, {"measurement": "T/C", "setting": "dose: 16.0 mg/kg/injection", "value": "130 and 140 % of control"}, {"measurement": "T/C", "setting": "dose: 32.0 mg/kg/injection", "value": "95 % of control"}, {"measurement": "survivor count", "setting": "dose: 32.0 mg/kg/injection", "value": "6 of 6"}, {"measurement": "survivor count", "setting": "dose: 64.0 mg/kg/injection", "value": "4 of 6"}]}
